In doi:10.1101/2023.04.14.536847 one finds binding data, which are given here for 1 molecule.

Results are given in words; binding and its absence hold for the method and conditions named. Some entries that bind do so weakly or less than the wild type. Tags and fused reporters may be left off the sequences shown.

The test concerns the target DnaB, full-length, BACTH fusion (Myxococcus xanthus) (UniProt Q1D285). In words: two-hybrid.

B1: DnaB, full-length, BACTH fusion (protein, UniProt Q1D285 1-456)
chain: MENVHEFREGRKVHEDLAAERAVLGAVLADNTLIAAVGEVVHPEDFSSPAHAQIFEAMLKLDGQSRQVDHLTLAEELKVLGHLVSVGGPAYLMRLDQVVPIASNAVQYAQIVKDQAIRRRLAQAGREIQDLASQETGELEVLLDEAERKVFLLAEKKREGDLRPVSELMEHTLDLLDKMKAAATGITGLSTGYIDLDNQLTGLHAGELIILAARPGIGKTSFAMNIAVHAALKENKAVGIFSLEMPADQLLMRLLASTARVDMKKLRGGRLTPHDEEKFQEMAGALYNAPIYIDDSGGLSPFDLRAKARRVKQRDPRLSLIVIDYLQLMHQKGKVESRQLEVAEISRALKQLAKELEVPIIALSQLSRKVEDRKDGKPLLSDLRESGSIEQDADVVMFIHRETSDEAGPDGQPAQQSNTVIPVELIIAKQRNGPIGSIDLVFLAEYTRFESRSRSE
For B1, the binding entry is “binds”.
